Test results taken from patent US6528251B2, “Method of managing the chemotherapy of patients who are HIV positive based on the phenotypic drug sensitivity of human HIV strains” (Virco N.V., priority 1996, dated 2003).
At least one compound was matched to its structure with a doubt left.

What was measured:
[1] = tested on: recombinant virus from patient viral RNA (Example 11); assay: Recombinant virus assay (MT4/MTT), patient of Example 11 (therapy history RT and protease inhibitors); format: cell-based, HIV-1; settings: Example 11 patient, conclusion from Table 7
Experimental: (§1) RNA was isolated from 100 μl of plasma according to the method described by Boom, R. et al. (1990, supra), and was reverse transcribed with the GeneAmp reverse transcriptase kit (Perkin Elmer) as described by the manufacturer and using an HIV-1 specific downstream primer (OUT3: 5′-CATTGCTCTCCAATTACTGTGATATTTCTCATC-3′; SEQ ID NO: 1). PCR on reverse transcribed RNA was performed with inner and outer primers as described by Kellam, P. and Larder, B. A. (1994, supra). After chloroform extraction and centrifugation on Centricon 100 columns or centrifugation on anion-exchange spin columns (Quiagen), the isolated PCR product was ready for use in the transfection reactions.
(§2) MT4 cells were subcultured at a density of 250,000 cells/ml before transfection (exponential growth phase). […]
(§3) During 7 to 10 days following the transfection, cells were monitored for the appearance of cytopathogenic effect (CPE). […]
(§4) After titration of the new viruses, the stocks were used for antiviral experiments in the presence of serial dilutions of different HIV inhibitors. Titres of the harvested supematants were determined by limited serial dilution titration of virus in MT4 cells. […]
(§5) To each well of the microtiter plates, 20 μl of a solution of MTT (7.5 mg/ml in PBS) was added. […] Finally the absorbances were read at two wavelengths (540 and 690 nm). […]

[2] = tested on: recombinant virus from patient viral RNA (Example 12); assay: Recombinant virus assay (MT4/MTT), patient of Example 12 (therapy history RT and protease inhibitors); format: cell-based, HIV-1; settings: Example 12 patient, conclusion from Table 8
Experimental: as §1, §2, §3, §4, §5

Nc1ccn([C@@H]2CS[C@H](CO)O2)c(=O)n1 [3TC, lamivudine]
susceptibility of the patient's HIV strain (in words) [1]: decreased susceptibilty
susceptibility of the patient's HIV strain (in words) [2]: decreased susceptibility
